Experimental data taken from paper PMC11786360.
These are yes or no findings as the source states them, for the method shown. In cells and extracts the contact can be indirect. Some binding calls cover weakened binding; strength is not graded here. For some assays here: Where a sequence is shown, tags or fusion partners need not be part of it.

The chains behind the UniProt entries cited, without tags or fusion partners.
UniProt P45974: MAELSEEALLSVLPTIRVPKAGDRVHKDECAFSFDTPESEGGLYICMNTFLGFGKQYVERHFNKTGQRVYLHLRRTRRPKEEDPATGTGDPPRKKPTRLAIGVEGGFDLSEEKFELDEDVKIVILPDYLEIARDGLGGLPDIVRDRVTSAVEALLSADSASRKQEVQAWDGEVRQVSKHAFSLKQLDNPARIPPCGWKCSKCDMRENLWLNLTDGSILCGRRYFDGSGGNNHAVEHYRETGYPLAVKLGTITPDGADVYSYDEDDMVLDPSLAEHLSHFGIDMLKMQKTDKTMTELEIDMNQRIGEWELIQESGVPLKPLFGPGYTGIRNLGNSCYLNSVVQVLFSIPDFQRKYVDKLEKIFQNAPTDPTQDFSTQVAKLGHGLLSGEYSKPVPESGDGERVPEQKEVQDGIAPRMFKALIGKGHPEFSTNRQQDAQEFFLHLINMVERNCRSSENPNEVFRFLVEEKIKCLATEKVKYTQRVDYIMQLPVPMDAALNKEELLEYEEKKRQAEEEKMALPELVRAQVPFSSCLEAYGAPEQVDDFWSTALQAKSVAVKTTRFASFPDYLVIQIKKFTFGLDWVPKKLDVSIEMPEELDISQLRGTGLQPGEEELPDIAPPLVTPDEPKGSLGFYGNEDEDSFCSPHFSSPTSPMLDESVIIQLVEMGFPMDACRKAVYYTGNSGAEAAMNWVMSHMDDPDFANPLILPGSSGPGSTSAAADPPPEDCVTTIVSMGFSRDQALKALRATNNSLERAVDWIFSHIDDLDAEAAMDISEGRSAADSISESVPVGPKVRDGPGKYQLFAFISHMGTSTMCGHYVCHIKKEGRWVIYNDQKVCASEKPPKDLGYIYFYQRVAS

Key:
[1] = biological target: T1, His-LRP11 (UniProt Q86VZ4); assay: co-IP; exogenous proteins, HEK293T cells transfected with His-LRP11, Flag-RACK1 and HA-USP5, RIPA lysis buffer; tag antibodies or IgG 4 °C 24 h, protein A and G agarose beads, five washes with PBS, Western blot
T1 sequence: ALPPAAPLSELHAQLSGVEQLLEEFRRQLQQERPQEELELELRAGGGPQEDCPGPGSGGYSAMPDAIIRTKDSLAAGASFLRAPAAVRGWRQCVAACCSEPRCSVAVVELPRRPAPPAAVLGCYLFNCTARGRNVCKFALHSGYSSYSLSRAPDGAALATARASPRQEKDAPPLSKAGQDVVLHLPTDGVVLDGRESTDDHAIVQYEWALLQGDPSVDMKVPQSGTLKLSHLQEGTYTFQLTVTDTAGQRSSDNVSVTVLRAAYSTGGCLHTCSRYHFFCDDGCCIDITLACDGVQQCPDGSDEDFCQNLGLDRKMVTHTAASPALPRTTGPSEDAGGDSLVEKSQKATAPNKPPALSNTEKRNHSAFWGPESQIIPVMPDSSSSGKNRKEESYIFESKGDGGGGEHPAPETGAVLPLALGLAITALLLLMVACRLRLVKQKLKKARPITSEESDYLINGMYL

[2] = biological target: T2, low-density lipoprotein receptor-related protein 11 (LRP11), endogenous (human (endogenous in Hep3B)) (UniProt Q86VZ4); assay: co-IP; endogenous proteins, Hep3B cells in RIPA lysis buffer; primary antibody or IgG 4 °C 24 h, protein A and G agarose beads 3 h, five washes with PBS, Western blot; USP5-RACK1 also tested in LRP11 knock-down and LRP11-overexpressing cells
T2 sequence: T1 sequence

binding [1]	binding [2]	Substance
binds		HA-USP5 (from UniProt P45974 1-858) (enzyme)
	binds	Ubiquitin specific peptidase 5 (USP5), endogenous (from UniProt P45974 1-858) (enzyme)
